# In paper PMC9897197 (Brain, 2022):
# Experiment: Brain uptake
# Conditions: ISCP, 3H-diazepam (0.3 µCi/µl), age-matched (15-week-old) C57Bl6 mice; mean ± SEM
smiles,measurement,value
CN1C(=O)CN=C(c2ccccc2)c2cc(Cl)ccc21 [diazepam],brain uptake coefficient of diazepam (highly diffusible comparator),45.6 ± 2.6 µL/g/s
